Experimental data: PubChem BioAssay AID1259308 (NCATS, 2017)

- Test: 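Knock-downs that increase output of a recombinant reporter protein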 (primary screen)
- Cells: human HEK293 embryonic kidney cells stably expressing firefly luciferase (HEK-CMV-Luc2-Hygro)
- Reagents: single siRNA against human genes, 0.8 pmol siRNA per well
- Time to read-out: 72 h
- Measurement: 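Reporter luminescence and viable-cell signal on separate replicate plates, given as percent of non-targeting control and median/MAD z-scores, plus per-cell luciferase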
- Reading the numbers: total luciferase, z-score and total luciferase, % of control: higher = more reporter protein produced; luciferase per cell, z-score: higher = more reporter output per viable cell; viable cells, % of control: higher = more viable cells
- Rule for the call: 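Active when the median/MAD z-score for overall luciferase is greater than 3; a gene was taken forward for validation with new siRNAs if at least two of its three siRNAs passed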
- Meaning of the calls: active = raised luciferase; inactive = no rise
Shown is one part, drawn at random, of about 59,000 reagents tested. Over the whole deposit, about 1,510 (2.6%) are marked active. 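Calls use total luciferase alone and ignore viability, so some active siRNAs may act by altering cell number.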 Unmarked entries are inactive. The numbers tell different reagents against one gene apart.

no.	gene	siRNA no.	total luciferase, z-score	total luciferase, % of control	luciferase per cell, z-score	viable cells, % of control
1	DOCK9 (GeneID 23348)	1	0.364	89.1	0.105	96.9
2	DOCK9 (GeneID 23348)	2	-0.239	77.1	-0.0636	87.6
3	DOCK9 (GeneID 23348)	3	1.83	118	0.997	102
4	CADPS2 (GeneID 93664)	1	0.0235	82.4	-0.194	96.8
5	CADPS2 (GeneID 93664)	2	-0.557	70.8	0.266	73.8
6	CADPS2 (GeneID 93664)	3	2.11	124	2.43	73.1
7	TLCD5 (GeneID 219902)	1	-0.436	73.2	-0.967	106
8	TLCD5 (GeneID 219902)	2	-0.0492	80.9	-0.125	93.4
9	TLCD5 (GeneID 219902)	3	-2.13	39.6	-2.15	77.8
10	TLE2 (GeneID 7089)	1	-1.25	57.1	-1.36	91.3
11	TLE2 (GeneID 7089)	2	-1.17	58.6	-0.754	79.8
12	TLE2 (GeneID 7089)	3	0.443	90.7	0.465	89.7
13	NHLRC1 (GeneID 378884)	1	0.277	87.4	0.683	81.6
14	NHLRC1 (GeneID 378884)	2	1.55	113	1.89	76.5
15	NHLRC1 (GeneID 378884)	3	2.25	127	2.5	73.4
16	ESR2 (GeneID 2100)	1	-0.00977	81.7	-0.098	93.7
17	ESR2 (GeneID 2100)	2	-0.0291	81.3	0.247	85.1
18	ESR2 (GeneID 2100)	3	-2.35	35.1	-2.68	79.5
19	TGS1 (GeneID 96764)	1	-1.11	59.8	-1.69	104
20	TGS1 (GeneID 96764)	2	0.13	84.5	0.372	85.6
21	TGS1 (GeneID 96764)	3	-0.504	71.9	-0.744	97.7
22	REXO4 (GeneID 57109)	1	-1.75	47.1	-0.767	64.4
23	REXO4 (GeneID 57109)	2	-0.549	71	-0.569	92.1
24	REXO4 (GeneID 57109)	3	0.934	100	1.41	77.4
25	PLA1A (GeneID 51365)	1	0.0615	83.1	0.25	87
26	PLA1A (GeneID 51365)	2	-1.67	48.6	-1.87	88.9
27	PLA1A (GeneID 51365)	3	0.933	100	0.418	101

6 entries already listed, sorted by “viable cells, % of control”, highest first:
gene	siRNA no.	total luciferase, z-score	total luciferase, % of control	luciferase per cell, z-score	viable cells, % of control
ESR2 (GeneID 2100)	1	-0.00977	81.7	-0.098	93.7
ESR2 (GeneID 2100)	2	-0.0291	81.3	0.247	85.1
NHLRC1 (GeneID 378884)	1	0.277	87.4	0.683	81.6
ESR2 (GeneID 2100)	3	-2.35	35.1	-2.68	79.5
NHLRC1 (GeneID 378884)	2	1.55	113	1.89	76.5
NHLRC1 (GeneID 378884)	3	2.25	127	2.5	73.4

More records follow:
no.	gene	siRNA no.	total luciferase, z-score	total luciferase, % of control	luciferase per cell, z-score	viable cells, % of control
28	ESX1 (GeneID 80712)	1	-0.538	71.2	-0.486	90.4
29	ESX1 (GeneID 80712)	2	0.967	101	0.403	102
30	ESX1 (GeneID 80712)	3	0.214	86.1	0.636	81.4
31	ACTA2 (GeneID 59)	1	-1.4	54.1	-0.427	67.7
32	ACTA2 (GeneID 59)	2	0.379	89.4	-0.497	114
33	ACTA2 (GeneID 59)	3	0.906	99.9	1.25	80.4
34	PI4KAP2 (GeneID 375133)	1	-1.22	57.7	-0.879	81.2
35	PI4KAP2 (GeneID 375133)	2	1.37	109	1.19	89.1
36	PI4KAP2 (GeneID 375133)	3	1.57	113	0.000411	126
37	FTH1 (GeneID 2495)	1	0.141	84.7	0.61	80.6
38	FTH1 (GeneID 2495)	2	-0.00563	81.8	0.128	88.3
39	FTH1 (GeneID 2495)	3	-0.291	76.1	-0.0356	85.8
40	TMEM186 (GeneID 25880)	1	3.08 (active)	143	2.33	86.6
41	TMEM186 (GeneID 25880)	2	1.68	115	0.927	101
42	TMEM186 (GeneID 25880)	3	0.695	95.7	0.879	84.9
43	ANAPC10 (GeneID 10393)	1	-1.13	59.4	-1.54	99.5
44	ANAPC10 (GeneID 10393)	2	0.0176	82.2	0.817	74.1
45	ANAPC10 (GeneID 10393)	3	-1.36	54.9	-1.26	85.4
46	POU4F3 (GeneID 5459)	1	2.25	127	2.89	66
47	POU4F3 (GeneID 5459)	2	-0.35	74.9	-0.784	103
48	POU4F3 (GeneID 5459)	3	1.2	106	1.47	80.2
49	RCBTB1 (GeneID 55213)	1	-0.315	75.6	-0.524	97
50	RCBTB1 (GeneID 55213)	2	-1.04	61.2	-0.871	86.1
51	RCBTB1 (GeneID 55213)	3	0.459	91	-0.192	107
52	CCDC7 (GeneID 79741)	1	3.08 (active)	143	1.62	104
53	CCDC7 (GeneID 79741)	2	-0.287	76.2	-0.454	95.9
54	CCDC7 (GeneID 79741)	3	0.0682	83.2	-0.592	109
55	CCDC7 (GeneID 79741)	4	0.0737	83.4	0.112	90.4
56	CCDC7 (GeneID 79741)	5	-0.117	79.6	-0.235	94.6
57	CCDC7 (GeneID 79741)	6	0.397	89.8	0.0245	99.7
58	SEC16B (GeneID 89866)	1	-0.718	67.6	-1.3	106
59	SEC16B (GeneID 89866)	2	0.0355	82.6	-0.105	94.9
60	SEC16B (GeneID 89866)	3	-0.114	79.6	-0.31	96.6
61	GABRB2 (GeneID 2561)	1	-1.95	43	-2.09	83.4
62	GABRB2 (GeneID 2561)	2	-1.09	60.3	-1.76	107
63	GABRB2 (GeneID 2561)	3	0.311	88.1	0.012	98.1
64	ZNF530 (GeneID 348327)	1	0.111	84.1	-0.136	97.4
65	ZNF530 (GeneID 348327)	2	-1.38	54.5	-1.42	88.5
66	ZNF530 (GeneID 348327)	3	-1.05	61	-1.45	99.9
67	LINC01567 (GeneID 400511)	1	1.08	103	1.18	84.7
68	LINC01567 (GeneID 400511)	2	0.153	84.9	0.0747	93.1
69	LINC01567 (GeneID 400511)	3	1.08	103	1.86	70.8
70	ZNF623 (GeneID 9831)	1	-0.461	72.7	0.312	74.8
71	ZNF623 (GeneID 9831)	2	2.2	126	0.861	112
72	ZNF623 (GeneID 9831)	3	0.831	98.4	0.494	96.6
73	PLAGL2 (GeneID 5326)	1	1.51	112	1.29	89
74	PLAGL2 (GeneID 5326)	2	0.258	87	0.765	79.5
75	PLAGL2 (GeneID 5326)	3	1.74	117	2.87	61.2
